Laboratory results: PubChem BioAssay AID504467 (National Center for Advancing Translational Sciences (NCATS), 2011)
Among all 330,000 compounds or so, about 7,700 (2.3%) were called active. Inconclusive means that the source gave no clear call. Such entries were picked first, then a sample of the others. Calls come from the whole dose curve; as a rule, active = well fitted inhibition curve with a large enough effect; inconclusive = small, poorly fitted or top-dose-only effect, or effect the other way; inactive = flat fitted curve, though single readings scatter. A potency beside an inconclusive call is a rough fit, not a confirmed value.

Experiment: qHTS screen for small molecules that inhibit ELG1-dependent DNA repair in human embryonic kidney (HEK293T) cells expressing luciferase-tagged ELG1; note: nearly all actives have a fitted effect of over 55% in size
Settings: HEK293T ELG1-luciferase reporter, luminescence, 16 h, DNA damage induced by 5-fluorouridine; series mostly up to 46.1 µM
How it was run: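 Reporter activity after DNA damage by 5-fluorouridine is monitored. Compound-treated cells incubate 16 hr at 37 °C, then ONE-Glo is added for 30 min before luminescence reading.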
Potency is the fitted concentration of half-maximal effect.

Structure (SMILES) | Potency
N/C(=N\OS(=O)(=O)c1ccccc1)c1ccccn1 | inconclusive: 20.6 µM [activator, single point]
COc1cc(/C=C2/SC(=S)NC2=O)ccc1OS(=O)(=O)c1ccc(C)cc1 | inconclusive: 13 µM [inhibitor, partial curve]
COc1ccc(C(=O)N[C@H](C(=O)NCc2ccco2)C(C)C)cc1 | inactive
CCOc1ccc(C(=O)NC(=S)Nc2ccccc2N2CCOCC2)cc1Br | inconclusive: 29.1 µM [inhibitor, single point]
CCCc1nnc(SCC(=O)Nc2ccccc2F)o1 | inconclusive: 25.9 µM [activator, single point]
COc1ccc(CC(=O)Nc2cccc(C(=O)Nc3ccccc3C(=O)O)c2)cc1OC | inactive
O=C(COc1ccc(-c2nnc(N3CCCCC3)c3ccccc23)cc1)N1CCCCC1 | active: 14.6 µM
CCC(C)N(C(=O)COc1ccccc1C#N)C1CCS(=O)(=O)C1 (stereo not given) | inconclusive: 23.1 µM [activator, partial curve, poor fit]
Nc1ccc2c(c1)OC1(CCCC1)O2 | inconclusive: 3.26 µM [activator, full curve]
COc1ccc(N2CCN(C(=O)NC34CC5CC(CC(C5)C3)C4)CC2)cc1 | inconclusive: 32.6 µM [inhibitor, single point]
Cc1c(NC(=O)c2cn3ccccc3n2)cccc1-n1cnnn1 | inconclusive: 20.6 µM [activator, partial curve]
Cc1cc2c(cc1C)N(C(=O)CSc1nncn1C)C(C)(C)c1ssc(=S)c1-2 | inconclusive: 32.6 µM [inhibitor, single point]
CC(C)COP(=O)(c1ccc(N(C)C)cc1)C(O)c1cccnc1 (stereo not given) | inactive
Cc1cc(C(=O)Nc2ccc(Cl)cc2)c(C)n1-c1ccccc1 | inconclusive: 0.206 µM [activator, partial curve]
COc1ccc(S(=O)(=O)N2CCCCCC2)cc1NC(=O)CN1C(=O)CNC1=O | inactive
COc1ccc2cc(-c3cc(C(=O)O)c4ccccc4n3)ccc2c1 | inconclusive: 0.326 µM [activator, partial curve]
CCOC(=O)CSc1nc2nc(C)cc(C)n2n1 | inconclusive: 20.6 µM [activator, partial curve, poor fit]
CCN(CC)S(=O)(=O)c1cccc(NC(=O)c2ccc(-n3nc(C)cc3C)cc2)c1 | active: 14.6 µM
COCCN(CCOC)C(=O)N1CCOCC1 | inconclusive: 6.51 µM [inhibitor, single point]
O=C(COc1ccccc1Br)NCCC1=CCCCC1 | inconclusive: 29.1 µM [activator, partial curve, poor fit]
COc1ccc([C@H]2CC(=O)C=C(c3ccc(Oc4ccccc4)cc3)C2)cc1OC | inconclusive: 7.3 µM [inhibitor, partial curve, poor fit]
CCOc1ccc(OCCSc2nc(C)cc(=O)[nH]2)cc1 | inconclusive: 11.2 µM [activator, partial curve]
O=C(O)c1cc(N/N=C/C(Cl)=C/c2ccccc2)ccc1Cl | inconclusive: 0.259 µM [activator, full curve]
CC1(C)c2ccccc2N(CC(N)=O)C12C=Cc1ccccc1O2 (stereo not given) | inconclusive: 32.6 µM [inhibitor, single point]

Structure (SMILES) | Potency
C/C=C/c1ccc(OCCn2nnc3ccccc32)c(OC)c1 | inconclusive: 23.1 µM [activator, single point]
Nc1ccc(C(=O)c2cccs2)cn1 | inconclusive: 29.1 µM [activator, partial curve, poor fit]
COc1ccc(C)cc1NS(=O)(=O)c1ccc(Br)s1 | inactive
CCOC(=O)C1=Nc2ccccc2C1=[N+]=[N-] | inconclusive: 8.91 µM [inhibitor, partial curve]
Cc1ccc(C)c(N2CCN(C(=O)CCC(=O)N3CCOc4ccc(Cl)cc43)CC2)c1 | inactive
CSCCC(NC(=O)COc1ccccc1)C(=O)N(C)CC(=O)Nc1ccc(Cl)cc1 (stereo not given) | inconclusive: 13 µM [inhibitor, partial curve, poor fit]
NS(=O)(=O)c1ccc(Nc2ccc3nonc3c2[N+](=O)[O-])cc1 | inactive
C[C@@H]1C2CC(C/C2=N\NC(=O)c2ccncc2)C1(C)C (stereo not given in full) | inactive
CCc1cc(-c2n[nH]c(C)c2Oc2ccc(C(C)C)cc2)c(O)cc1O | inactive
Cc1cc(C)c2c(n1)sc1c(-c3ccccc3)c(C#N)c(N)nc12 | inconclusive: 23.1 µM [activator, single point]
CC(=O)c1ccc(NC(=S)N2CCN(c3cccc(Cl)c3)CC2)cc1 | inconclusive: 29.1 µM [inhibitor, single point]
CCOC(O)[C@H]1N[C@@H](c2ccc(Cl)cc2)[C@@H]([N+](=O)[O-])[C@@H]1c1ccccc1 (stereo not given in full) | inactive
CC(C)/C=N/Nc1nc(-c2ccc(Br)cc2)cs1 | inconclusive: 20.6 µM [activator, partial curve]
CC(=O)/C(=N/Nc1ccc(C)cc1)Sc1nnc(CCc2ccccc2)n1-c1ccccc1 | inactive
COc1ccc(NS(=O)(=O)c2cc3c(cc2C)N(C(C)=O)CCO3)cc1 | inconclusive: 16.4 µM [activator, partial curve, poor fit]
COc1ccc(CN(C(=O)c2oc3ccccc3c2C)C2CCS(=O)(=O)C2)cc1 (stereo not given) | inconclusive: 18.4 µM [inhibitor, single point]
CCOC(=O)c1[nH]c2ccccc2c1NC(=S)Nc1cccc(C)c1 | inconclusive: 20.6 µM [activator, single point]
O=C(C1CCCN1S(=O)(=O)c1ccc(Cl)c(Cl)c1)N1CCOCC1 (stereo not given) | inactive
COc1ccc(CNc2ccc3c(c2)ncn3-c2ccccc2OC)cc1 | inconclusive: 0.92 µM [activator, full curve, poor fit]
CSc1nc(NS(=O)(=O)c2ccc(F)cc2F)nn1C | inactive
CCN(CC)C(=O)CSc1nc2ccc(NC(=O)CSc3nccn3C)cc2s1 | active: 20.6 µM
CCCOC(=O)c1ccc(NC(=O)c2cc(=O)[nH]c3ccccc23)cc1 | inactive
COC(=O)c1sc2ncn(CC(=O)NCCc3ccc(OC)c(OC)c3)c(=O)c2c1C | inconclusive: 6.51 µM [inhibitor, partial curve]
Cc1ccc(S(=O)(=O)N2CCC(C(=O)OCC(=O)N3CC(C)CC(C)C3)CC2)cc1C (stereo not given) | inactive

Reformatted: three of the compounds above.

| Structure (SMILES) | Potency |
| --- | --- |
| CC(C)/C=N/Nc1nc(-c2ccc(Br)cc2)cs1 | inconclusive: 20.6 µM [activator, partial curve] |
| CC(=O)/C(=N/Nc1ccc(C)cc1)Sc1nnc(CCc2ccccc2)n1-c1ccccc1 | inactive |
| COc1ccc(NS(=O)(=O)c2cc3c(cc2C)N(C(C)=O)CCO3)cc1 | inconclusive: 16.4 µM [activator, partial curve, poor fit] |

The list continues.

Structure (SMILES) | Potency
O=C(N/N=C/C=C/c1ccccc1)c1cccs1 | inconclusive: 23.1 µM [activator, partial curve]
Cc1ccc(-n2c(O)c(C=NC3CCS(=O)(=O)C3)c3ccccc3c2=O)cc1C (stereo not given) | inactive
COc1cccc(/C=C2\SC(=S)N(NC(=O)c3ccncc3)C2=O)c1 | inactive
COc1cccc(CNC(=O)c2ccc(COc3ccccc3)cc2)c1 | inconclusive: 10.3 µM [activator, partial curve, poor fit]
Cc1ccc(S(=O)(=O)NCc2ccccc2)cc1C(=O)N1CCN(S(=O)(=O)c2ccccc2)CC1 | inactive
CC(C)c1ccc(NC(=O)C(=O)c2cn(CC(=O)N3CCCCC3)c3ccccc23)cc1 | inconclusive: 14.6 µM [inhibitor, partial curve]
Cc1cc(Cl)ccc1NC(=O)c1ccc2c(c1)CCN2S(C)(=O)=O | inactive
Cn1c(=O)[nH]c(=O)c2c1nc(N1CCOCC1)n2CC(O)COc1ccc2ccccc2c1 (stereo not given) | inconclusive: 29.1 µM [inhibitor, partial curve, poor fit]
COc1ccc(C)cc1NC(=O)CCS(=O)(=O)c1ccc2c(c1)oc(=O)n2C | inconclusive: 29.1 µM [activator, partial curve, poor fit]
O=C(COc1ccccc1)N1CCCCCCC1 | inactive
COc1ccc(C)cc1COC(=O)c1[nH]c(C)c(C(C)=O)c1C | inactive
COC(=O)Cc1csc(Nc2ccccc2Cl)n1 | inconclusive: 16.4 µM [activator, partial curve]
Cc1ccc(CC2C(=O)N(c3cc(Cl)ccn3)C(=O)C2C)cc1 (stereo not given) | inconclusive: 16.4 µM [activator, single point]
C=CC[C@@H](CC(=O)N[C@H](CO)Cc1ccccc1)C(=O)N[C@@H](COC(=O)[C@@H](CC=C)CC(=O)OC(C)(C)C)Cc1ccccc1 | inconclusive: 18.3 µM [inhibitor, single point]
CCCCc1ccc(NC(=S)N2CCN(c3ncccn3)CC2)cc1 | inconclusive: 25.9 µM [inhibitor, single point]
COc1ccc(C2=NN(C(=O)CSc3ncccn3)C(c3cccc(OC)c3OC)C2)cc1 (stereo not given) | inconclusive: 29.1 µM [inhibitor, single point]
O=C(CSCCO)Nc1ccc(C2CCCCC2)cc1 | inconclusive: 23.1 µM [activator, partial curve]
COc1ccc(O)c(C(=O)c2cnn(S(=O)(=O)c3ccc(C)cc3)c2)c1 | inconclusive: 9.2 µM [inhibitor, partial curve]
COCCn1c(-c2ccc(C)cc2)nc2oc3cc(OC)ccc3c(=O)c2c1=O | inconclusive: 29.1 µM [inhibitor, single point]
CCOc1cc(NC(=S)NCC2CCCO2)c(OCC)cc1NC(=O)c1cccc(F)c1 (stereo not given) | inconclusive: 20.6 µM [inhibitor, single point]
CC(C)Cn1c(N)c(C(=O)COC(=O)c2cc3ccccc3cc2O)c(=O)n(C)c1=O | inactive
Cc1cccc(C2=NN(c3ccc(Br)cc3)[C@@H](C(=O)N3CCOC3=O)[C@@H]2c2ccccc2)c1 | inactive
